Record: PubChem BioAssay AID1159596 (NIAID, 2016)
Here is one part, drawn at random, of 756 reagents tested. Over the whole deposit, 143 (19%) got an active call. 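Active means the reporter moved past about ±1.5 in either direction; scores are per single siRNA, not per gene; peptidoglycan dose not given.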 Reagents against one gene are numbered here. Not stated in the record: the amount of reagent.

Test: 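Genes whose silencing alters the TNF reporter response of macrophage-like cells to peptidoglycan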 (primary screen)
Cells: human THP1 B5 monocytic reporter cells made macrophage-like with PMA
Reagent: single siRNA against human genes
Time to read-out: assayed 48 to 72 hours after siRNA transfection; peptidoglycan stimulation lasted 4 hours
Conditions: Staphylococcus aureus peptidoglycan for 4 hours; dose not given
Measurement: 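Mean over replicate screens of a robust z per siRNA from the dual luciferase TNF promoter reporter after 4 h peptidoglycan, median/MAD normalised, relative to negative controls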
Direction: TNF reporter z-score: higher = stronger TNF promoter reporter response to peptidoglycan
Hit rule: In these data the active calls have TNF reporter z-score, replicate mean at about -1.5 or lower, or at about 1.5 or higher
Meaning of the calls: active = reporter shifted beyond cut (either direction); inactive = reporter near control level

gene symbol,reagent no.,"TNF reporter z-score, replicate mean",activity call
TRADD (TNFRSF1A associated via death domain),1,-0.146,inactive
TRADD (TNFRSF1A associated via death domain),2,-0.259,inactive
TRADD (TNFRSF1A associated via death domain),3,-0.443,inactive
TRADD (TNFRSF1A associated via death domain),4,-1.59,active
TRADD (TNFRSF1A associated via death domain),5,1.19,inactive
TRADD (TNFRSF1A associated via death domain),6,-3.35,active
PIK3R2 (phosphoinositide-3-kinase regulatory subunit 2),1,-0.46,inactive
PIK3R2 (phosphoinositide-3-kinase regulatory subunit 2),2,-2.28,active
PIK3R2 (phosphoinositide-3-kinase regulatory subunit 2),3,-0.0311,inactive
PIK3R2 (phosphoinositide-3-kinase regulatory subunit 2),4,-2.25,active
PIK3R2 (phosphoinositide-3-kinase regulatory subunit 2),5,-0.132,inactive
PIK3R2 (phosphoinositide-3-kinase regulatory subunit 2),6,-0.972,inactive
MAPKAPK2 (MAPK activated protein kinase 2),1,-0.201,inactive
MAPKAPK2 (MAPK activated protein kinase 2),2,0.612,inactive
MAPKAPK2 (MAPK activated protein kinase 2),3,-0.072,inactive
MAPKAPK2 (MAPK activated protein kinase 2),4,-0.677,inactive
MAPKAPK2 (MAPK activated protein kinase 2),5,0.494,inactive
MAPKAPK2 (MAPK activated protein kinase 2),6,-0.764,inactive
MAPK3 (mitogen-activated protein kinase 3),1,-1.1,inactive
MAPK3 (mitogen-activated protein kinase 3),2,-0.0961,inactive
MAPK3 (mitogen-activated protein kinase 3),3,-0.674,inactive
MAPK3 (mitogen-activated protein kinase 3),4,0.389,inactive
MAPK3 (mitogen-activated protein kinase 3),5,-0.413,inactive
MAPK3 (mitogen-activated protein kinase 3),6,-2.78,active
TLR8 (toll like receptor 8),1,-0.204,inactive
TLR8 (toll like receptor 8),2,1.48,inactive
TLR8 (toll like receptor 8),3,-0.237,inactive
TLR8 (toll like receptor 8),4,-1.76,active
TLR8 (toll like receptor 8),5,0.026,inactive
TLR8 (toll like receptor 8),6,0.134,inactive
MYD88 (MYD88 innate immune signal transduction adaptor),1,-4.18,active
MYD88 (MYD88 innate immune signal transduction adaptor),2,-1.84,active
MYD88 (MYD88 innate immune signal transduction adaptor),3,-3.57,active
MYD88 (MYD88 innate immune signal transduction adaptor),4,-1.02,inactive
MYD88 (MYD88 innate immune signal transduction adaptor),5,1.82,active
MYD88 (MYD88 innate immune signal transduction adaptor),6,-1.32,inactive

Continued, starting with the last 4 of the part before.
gene symbol,reagent no.,"TNF reporter z-score, replicate mean",activity call
MYD88 (MYD88 innate immune signal transduction adaptor),3,-3.57,active
MYD88 (MYD88 innate immune signal transduction adaptor),4,-1.02,inactive
MYD88 (MYD88 innate immune signal transduction adaptor),5,1.82,active
MYD88 (MYD88 innate immune signal transduction adaptor),6,-1.32,inactive
TRAF3 (TNF receptor associated factor 3),1,-1.06,inactive
TRAF3 (TNF receptor associated factor 3),2,-0.992,inactive
TRAF3 (TNF receptor associated factor 3),3,-0.658,inactive
TRAF3 (TNF receptor associated factor 3),4,-1.06,inactive
TRAF3 (TNF receptor associated factor 3),5,-1.41,inactive
TRAF3 (TNF receptor associated factor 3),6,0.507,inactive
MAP2K1 (mitogen-activated protein kinase kinase 1),1,-0.494,inactive
MAP2K1 (mitogen-activated protein kinase kinase 1),2,0.0262,inactive
MAP2K1 (mitogen-activated protein kinase kinase 1),3,-1.86,active
MAP2K1 (mitogen-activated protein kinase kinase 1),4,-0.113,inactive
MAP2K1 (mitogen-activated protein kinase kinase 1),5,-0.384,inactive
MAP2K1 (mitogen-activated protein kinase kinase 1),6,-0.351,inactive
PIK3R1 (phosphoinositide-3-kinase regulatory subunit 1),1,-0.793,inactive
PIK3R1 (phosphoinositide-3-kinase regulatory subunit 1),2,0.157,inactive
PIK3R1 (phosphoinositide-3-kinase regulatory subunit 1),3,0.171,inactive
PIK3R1 (phosphoinositide-3-kinase regulatory subunit 1),4,0.874,inactive
PIK3R1 (phosphoinositide-3-kinase regulatory subunit 1),5,-2.3,active
PIK3R1 (phosphoinositide-3-kinase regulatory subunit 1),6,0.376,inactive
MAPK8 (mitogen-activated protein kinase 8),1,0.106,inactive
MAPK8 (mitogen-activated protein kinase 8),2,-0.479,inactive
MAPK8 (mitogen-activated protein kinase 8),3,0.409,inactive
MAPK8 (mitogen-activated protein kinase 8),4,0.211,inactive
MAPK8 (mitogen-activated protein kinase 8),5,0.0679,inactive
MAPK8 (mitogen-activated protein kinase 8),6,-0.2,inactive
